# Test results taken from PubChem BioAssay AID2685 (National Center for Advancing Translational Sciences (NCATS), 2010).
# The other results are listed elsewhere or left out. The main result of the screen is listed elsewhere. These columns were measured beside it and carry no call. Most of these compounds were active or inconclusive in the main read-out, so they are no random draw. The note in brackets gives the kind of curve behind each potency; many fits are weak.
# Test: qHTS Assay for Lipid Storage Modulators in Drosophila S3 Cells;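 as to cell number change: cells counted by Cell Tracker Red CMTPX staining in the red channel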
# Settings: BODIPY lipid droplet fluorescence, 18-24 h; for cell number change: measured here: cell count max response, cells fed with added oleic acid
# Procedure, shortened: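 Drosophila S3 cells loaded with oleic acid (400 uM, as added) and compounds at several concentrations; lipid droplets imaged by 488-nm laser-scanning cytometry, 500–530 nm intensity and object ratio to cell channel. Percent activity normalized to 20 uM Triacsin C.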
# [1] = measured here: cell number channel AC50, cells fed with added oleic acid
# [2] = measured here: lipid fluorescence (Fed channel) AC50, cells fed with added oleic acid
smiles,measurement,setting,value
CCCCCCC1CCC(c2nc(-c3ccncc3)no2)CC1 (stereo unspecified),cell number change,,-11.7%
same,AC50,[1],"6.51 µM [falling, single point]"
same,AC50,[2],"6.51 µM [falling, single point]"
COc1ccc(CCNC(=O)Cn2nc(C(=O)O)c3ccccc3c2=O)cc1OC,cell number change,,-52.9%
same,AC50,[1],"29.1 µM [falling, partial curve, poor fit]"
same,AC50,[2],"0.0326 µM [falling, full curve]"
CCc1ccc(OCC(=O)Nc2nnc(C3CCCC3)s2)cc1,cell number change,,1.18%
same,AC50,[2],"1.64 µM [rising, partial curve]"
CC(C)CN(C(=O)CCC(=O)OCc1ccc(Cl)cc1Cl)c1c(N)n(CC(C)C)c(=O)[nH]c1=O,cell number change,,-37.9%
same,AC50,[1],"29.1 µM [falling, single point]"
same,AC50,[2],"0.58 µM [falling, single point]"
Cc1ccc(S(=O)(=O)c2ccc(NN)cc2)cc1,AC50,[2],"4.61 µM [falling, partial curve, poor fit]"
O=C(CC1C(=O)NCCN1C(=O)c1ccc([N+](=O)[O-])cc1)Nc1cccc(Cl)c1 (stereo unspecified),cell number change,,21.4%
CCOCCn1c(-c2ccccc2)nc2ccccc21,cell number change,,12.3%
same,AC50,[2],"18.4 µM [rising, single point]"
CCOC(=O)C1CCN(Cc2nc3ccccc3c(=O)n2-c2ccc(OCC)cc2)CC1,cell number change,,-17.7%
same,AC50,[2],"23.1 µM [falling, partial curve]"
CC(=O)c1ccc(NC(=O)CSc2nc(N)c3cc4c(nc3n2)CCCC4)cc1,cell number change,,-39.5%
same,AC50,[1],"20.6 µM [falling, single point]"
same,AC50,[2],"23.1 µM [falling, single point]"
COCCNC(=O)c1ccc(C(=O)NCCOC)s1,cell number change,,-13.9%
same,AC50,[1],"6.51 µM [falling, single point]"
same,AC50,[2],"20.6 µM [falling, partial curve]"
c1ccc(Cc2nn[nH]n2)cc1,cell number change,,-0.13%
Cc1ccc(S(=O)(=O)N2CCCN(C(=O)OC(C)(C)C)CC2)cc1,cell number change,,15.2%
same,AC50,[2],"6.51 µM [rising, single point]"
COC(=O)COc1ccc(Oc2nc(SC)nc(N(C)C)n2)nn1,cell number change,,0.801%
same,AC50,[2],"29.1 µM [rising, single point]"
COc1ccc(Oc2coc3cc(OC(=O)/C=C/c4ccc(F)cc4)ccc3c2=O)cc1,cell number change,,-28.2%
same,AC50,[2],"11.6 µM [falling, single point]"
Cc1cc(=O)oc2cc(NC(=O)C3COc4ccccc4O3)ccc12 (stereo unspecified),cell number change,,-67.9%
same,AC50,[1],"23.1 µM [falling, partial curve, poor fit]"
same,AC50,[2],"20.6 µM [falling, single point]"
CC(Sc1nncs1)C(=O)Nc1ccc(Cl)cn1 (stereo unspecified),cell number change,,-18.3%
same,AC50,[1],"0.461 µM [rising, single point]"
same,AC50,[2],"0.58 µM [rising, single point]"
CN(CC(=O)NCc1ccc(F)cc1)Cc1cccc(Cl)c1,cell number change,,-9.52%
CC(C)NS(=O)(=O)c1ccc(OCC(=O)N2CCc3ccccc3C2)cc1,cell number change,,-14.3%
same,AC50,[2],"25.9 µM [falling, single point]"
Cc1cc(Cl)ccc1OCCCC(=O)Nc1cccnc1,cell number change,,-20.6%
same,AC50,[2],"0.411 µM [rising, full curve]"
Cc1nnc(SCCn2c(N3CC(C)CC(C)C3)nc3c2c(=O)n(C)c(=O)n3C)s1 (stereo unspecified),cell number change,,-21.5%
same,AC50,[2],"0.366 µM [falling, full curve, poor fit]"
O=c1cc(-c2ccccc2)cc(-c2ccccc2)n1O,cell number change,,29%
same,AC50,[2],"9.2 µM [rising, partial curve]"
CC(=O)c1ccc(OCCn2cnc3ccccc32)cc1,cell number change,,1.26%
same,AC50,[2],"9.2 µM [rising, partial curve]"
CC(C)NC(=O)c1sc2nc(-c3cccs3)cc(-c3cccs3)c2c1N,cell number change,,9%
same,AC50,[1],"0.82 µM [rising, full curve]"
same,AC50,[2],"0.651 µM [rising, full curve]"
Cc1ccc(NC(=O)CCc2nnc3ccc(NCc4ccco4)nn23)nc1,cell number change,,-7.34%
same,AC50,[2],"25.9 µM [falling, partial curve, poor fit]"
C(=N\Nc1nc2ccccc2s1)/c1cccs1,cell number change,,-19.7%
COCCCN1CC(=O)N2C(c3ccc(OC)c(OC)c3)c3[nH]c4ccccc4c3C[C@H]2C1=O (stereo partly specified),AC50,[2],"0.0366 µM [rising, full curve, poor fit]"
CC1(C(=O)NCc2ccc(F)cc2)Oc2ccccc2NC1=O (stereo unspecified),cell number change,,-17.2%
same,AC50,[1],"6.51 µM [falling, single point]"
same,AC50,[2],"29.1 µM [falling, single point]"
Cc1cccc(C)c1OCC(=O)Nc1ccc2c(c1)C(=O)NC2=O,cell number change,,-25.1%
same,AC50,[2],"29.1 µM [falling, single point]"
CCOc1nc(Nc2ccc(OC)cc2)nc(OCC)n1,cell number change,,78.4%
same,AC50,[1],"10.3 µM [rising, partial curve]"
COC(=O)c1[nH]cnc1C(=O)c1ccccc1,AC50,[1],"0.0184 µM [falling, full curve]"
same,AC50,[2],"29.1 µM [falling, partial curve]"
CC(=O)N1CCN(CCN=CC2=C(O)CC(c3cccs3)CC2=O)CC1 (stereo unspecified),AC50,[2],"0.651 µM [falling, full curve, poor fit]"
CC(=O)c1c(C)[nH]c(C(=O)Nc2ccccn2)c1C,AC50,[2],"10.3 µM [falling, partial curve, poor fit]"
Cc1ccc(S(=O)(=O)n2nc(C)c(C#N)c2N)cc1,cell number change,,2.41%
same,AC50,[2],"29.1 µM [rising, single point]"
Cc1cccnc1CC(C)NC(=O)c1cc(COc2cncc(Cl)c2)on1 (stereo unspecified),cell number change,,-26.7%
same,AC50,[2],"29.1 µM [falling, single point]"
NC(=O)c1ccc(NC(=O)COC(=O)c2c3c(nc4ccccc24)/C(=C\c2ccc4c(c2)OCO4)CCC3)cc1,cell number change,,-19.9%
same,AC50,[2],"16.4 µM [falling, single point]"
COc1ccc(C2NC(=O)CS2)cc1OC (stereo unspecified),cell number change,,32.3%
same,AC50,[1],"0.517 µM [rising, full curve, poor fit]"
CCn1c(-c2c(Cl)c(C)nn2C)n[nH]c1=S,cell number change,,-5.74%
same,AC50,[1],"6.51 µM [falling, single point]"
same,AC50,[2],"0.58 µM [falling, full curve]"

# Fetched one by one from above, 3 records:
smiles,measurement,setting,value
Cc1nnc(SCCn2c(N3CC(C)CC(C)C3)nc3c2c(=O)n(C)c(=O)n3C)s1 (stereo unspecified),cell number change,,-21.5%
COc1ccc(CCNC(=O)Cn2nc(C(=O)O)c3ccccc3c2=O)cc1OC,AC50,[2],"0.0326 µM [falling, full curve]"
Cc1ccc(NC(=O)CCc2nnc3ccc(NCc4ccco4)nn23)nc1,AC50,[2],"25.9 µM [falling, partial curve, poor fit]"
